Laboratory results from article PMC8599447.
These are yes or no findings as the source states them, for the method shown. Binding seen in cells or lysates may run through a third protein. Binding calls can cover weak binding; strength is not graded here.

Molecular target: T1, TFCP2, endogenously expressed (human (endogenous in pancreatic cancer cells)) (UniProt Q12800)
T1 sequence: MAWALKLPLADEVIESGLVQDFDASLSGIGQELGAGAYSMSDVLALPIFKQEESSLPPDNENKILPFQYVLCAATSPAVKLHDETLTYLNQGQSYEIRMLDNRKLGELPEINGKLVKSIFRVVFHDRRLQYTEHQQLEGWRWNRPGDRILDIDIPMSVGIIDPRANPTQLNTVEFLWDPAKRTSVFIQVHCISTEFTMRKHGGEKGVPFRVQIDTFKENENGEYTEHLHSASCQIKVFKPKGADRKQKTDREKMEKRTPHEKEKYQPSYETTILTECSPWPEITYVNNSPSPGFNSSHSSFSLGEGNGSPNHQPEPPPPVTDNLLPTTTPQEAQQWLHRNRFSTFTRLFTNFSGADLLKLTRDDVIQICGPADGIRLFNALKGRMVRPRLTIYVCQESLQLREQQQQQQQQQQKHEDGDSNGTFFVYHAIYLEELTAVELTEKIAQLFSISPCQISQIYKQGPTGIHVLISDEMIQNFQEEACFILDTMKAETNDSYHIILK
Assay: co-IP; endogenous proteins; RIPA lysate, primary antibody overnight at 4°C, Protein A/G agarose beads, western blot

**Q.** SREBP2(N), endogenous was tested. Which binding did it give?
**A.** binds
